From PMC9133088
These are yes or no findings as the source states them, for the method shown. In cells and extracts the contact can be indirect. Some entries that bind do so weakly or less than the wild type.

Amino acid sequences for entries named in this document (tags omitted).
UniProt Q9P2J5: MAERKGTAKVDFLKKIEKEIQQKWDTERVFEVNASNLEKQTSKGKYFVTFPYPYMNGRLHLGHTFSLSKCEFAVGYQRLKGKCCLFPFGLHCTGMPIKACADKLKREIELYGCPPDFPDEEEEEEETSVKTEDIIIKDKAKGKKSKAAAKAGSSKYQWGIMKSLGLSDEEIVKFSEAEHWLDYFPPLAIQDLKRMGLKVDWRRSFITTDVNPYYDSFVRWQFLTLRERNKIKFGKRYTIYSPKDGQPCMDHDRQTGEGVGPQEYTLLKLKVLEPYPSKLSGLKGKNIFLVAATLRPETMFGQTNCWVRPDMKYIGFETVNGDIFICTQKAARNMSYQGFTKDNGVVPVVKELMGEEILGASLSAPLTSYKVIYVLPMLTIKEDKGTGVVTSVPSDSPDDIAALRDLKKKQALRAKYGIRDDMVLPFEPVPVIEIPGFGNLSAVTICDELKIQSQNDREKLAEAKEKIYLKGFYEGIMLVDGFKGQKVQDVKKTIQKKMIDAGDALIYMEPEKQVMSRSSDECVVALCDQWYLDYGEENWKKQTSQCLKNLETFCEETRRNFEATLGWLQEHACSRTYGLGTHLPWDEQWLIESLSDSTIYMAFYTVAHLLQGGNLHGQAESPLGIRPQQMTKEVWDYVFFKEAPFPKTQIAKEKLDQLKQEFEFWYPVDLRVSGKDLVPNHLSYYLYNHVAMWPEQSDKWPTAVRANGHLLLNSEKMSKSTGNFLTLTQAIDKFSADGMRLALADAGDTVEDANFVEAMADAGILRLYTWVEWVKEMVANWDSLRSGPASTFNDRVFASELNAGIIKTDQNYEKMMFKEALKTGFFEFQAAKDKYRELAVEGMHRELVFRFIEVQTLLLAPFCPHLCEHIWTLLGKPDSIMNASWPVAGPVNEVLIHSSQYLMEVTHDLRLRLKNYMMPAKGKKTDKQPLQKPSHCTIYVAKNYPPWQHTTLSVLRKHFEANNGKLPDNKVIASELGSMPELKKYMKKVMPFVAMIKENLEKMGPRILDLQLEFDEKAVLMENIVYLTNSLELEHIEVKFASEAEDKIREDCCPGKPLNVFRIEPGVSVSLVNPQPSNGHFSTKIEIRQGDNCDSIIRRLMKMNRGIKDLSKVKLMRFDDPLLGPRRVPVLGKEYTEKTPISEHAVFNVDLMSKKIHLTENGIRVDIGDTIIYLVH

Target: leucyl-tRNA synthetase 1 (LARS1), endogenous (human (endogenous in SW620)) (UniProt Q9P2J5)
Assay: co-IP; endogenous proteins, SW620 lysates; anti-LARS1 antibody-conjugated agarose beads, immunoblot; lysis in 50 mM Tris-HCl pH 7.4, 10 mM NaCl, 0.5% Triton X-100; cells leucine-starved 1.5 h then 0.4 mM leucine 15 min with 11 mM glucose (Fig. 1f), or glucose-starved up to 4 h and glucose re-added up to 30 min (Fig. 2c, 5g, 5i)

- binding: binds
B1: O-GlcNAc transferase (OGT1), endogenous (enzyme, UniProt O15294 1-1046)
chain: MASSVGNVADSTEPTKRMLSFQGLAELAHREYQAGDFEAAERHCMQLWRQEPDNTGVLLLLSSIHFQCRRLDRSAHFSTLAIKQNPLLAEAYSNLGNVYKERGQLQEAIEHYRHALRLKPDFIDGYINLAAALVAAGDMEGAVQAYVSALQYNPDLYCVRSDLGNLLKALGRLEEAKACYLKAIETQPNFAVAWSNLGCVFNAQGEIWLAIHHFEKAVTLDPNFLDAYINLGNVLKEARIFDRAVAAYLRALSLSPNHAVVHGNLACVYYEQGLIDLAIDTYRRAIELQPHFPDAYCNLANALKEKGSVAEAEDCYNTALRLCPTHADSLNNLANIKREQGNIEEAVRLYRKALEVFPEFAAAHSNLASVLQQQGKLQEALMHYKEAIRISPTFADAYSNMGNTLKEMQDVQGALQCYTRAIQINPAFADAHSNLASIHKDSGNIPEAIASYRTALKLKPDFPDAYCNLAHCLQIVCDWTDYDERMKKLVSIVADQLEKNRLPSVHPHHSMLYPLSHGFRKAIAERHGNLCLDKINVLHKPPYEHPKDLKLSDGRLRVGYVSSDFGNHPTSHLMQSIPGMHNPDKFEVFCYALSPDDGTNFRVKVMAEANHFIDLSQIPCNGKAADRIHQDGIHILVNMNGYTKGARNELFALRPAPIQAMWLGYPGTSGALFMDYIITDQETSPAEVAEQYSEKLAYMPHTFFIGDHANMFPHLKKKAVIDFKSNGHIYDNRIVLNGIDLKAFLDSLPDVKIVKMKCPDGGDNADSSNTALNMPVIPMNTIAEAVIEMINRGQIQITINGFSISNGLATTQINNKAATGEEVPRTIIVTTRSQYGLPEDAIVYCNFNQLYKIDPSTLQMWANILKRVPNSVLWLLRFPAVGEPNIQQYAQNMGLPQNRIIFSPVAPKEEHVRRGQLADVCLDTPLCNGHTTGMDVLWAGTPMVTMPGETLASRVAASQLTCLGCLELIAKNRQEYEDIAVKLGTDLEYLKKVRGKVWKQRISSPLFNTKQYTMELERLYLQMWEHYAAGNKPDHMIKPVEVTESA
